Source: paper PMC2362735, “New semisynthetic vinca alkaloids: chemical, biochemical and cellular studies” (British Journal of Cancer, 1999)
Results are given in words; binding and its absence hold for the method and conditions named. A result given as binding can be weak or reduced; the word gives no strength.

Molecular target: Tubulin from calf brain (calf (bovine))
Assay: co-sedimentation; pelleting experiment: tubulin (printed 10 M, micro sign lost) without or with PFK (printed 2 M), assembly started with taxol (printed 20 M); 50 mM Hepes, 100 mM potassium chloride, 5 mM magnesium chloride, pH 7.0, 30C; 100 000 g for 20 min; pellets and supernatants on SDS-PAGE; some samples with vinblastine or KAR-2; both purified

B1: Phosphofructokinase [ATP: D-fructose 6-phosphate 1-phospho-transferase, EC 2.7.1.11] from rabbit skeletal muscle (enzyme, UniProt P00511 1-780)
chain: MTHEEHHAARTLGVGKAIAVLTSGGDAQGMNAAVRAVVRVGIFTGARVFFVHEGYQGLVDGGDHIREATWESVSMMLQLGGTVIGSARCKDFREREGRLRAAHNLVKRGITNLCVIGGDGSLTGADTFRSEWSDLLSDLQKAGKITAEEATRSSYLNIVGLVGSIDNDFCGTDMTIGTDSALHRITEIVDAITTTAQSHQRTFVLEVMGRHCGYLALVTSLSCGADWVFIPECPPDDNWEDHLCRRLSETRTRGSRLNIIIVAEGAIDRNGKPITSEGVKDLVVRRLGYDTRVTVLGHVQRGGTPSAFDRILGSRMGVEAVMALLEGTPDTPACVVSLSGNQAVRLPLMECVQVTKDVTKAMDEKRFDEAMKLRGRSFMNNWEVYKLLAHIRPPAPKSGSYTVAVMNVGAPAAGMNAAVRSTVRIGLIQGNRVLVVHDGFEGPAKGQIEEAGWSYVGGWTGQGGSKLGSKRTLPKKSFEQISANITKFNIQGLVIIGGFEAYTGGLELMEGRKQFDELCIPFVVIPATVSNNVPGSDFSVGADTALNTICTTCDRIKQSAAGTKRRVFIIETMGGYCGYLATMAGLAAGADAAYIFEEPFTIRDLQANVEHLVQKMKTTVKRGLVLRNEKCNENYTTDFIFNLYSEEGKGIFDSRKNVLGHMQQGGSPTPFDRNFATKMGAKAMNWMAGKIKESYRNGRIFANTPDSGCVLGMRKRALVFQPVTELQNQTDFEHRIPKEQWWLKLRPILKILAKYEIDLDTSEHAHLEHISRKRSGEATV
binding: binds
